The text below walks through data of paper PMC8598058.

These are yes or no findings as the source states them, for the method shown. In cells and extracts the contact can be indirect. These calls come from enrichment with a bait or labelling near it, and not all partners need be listed. For some assays here: A no says only that the protein was not detected with the bait.

Experiment [1] has as its target T1, SIN3A (human (endogenous in HEK293T, MCF-10A and MDA-MB-231)) (UniProt Q96ST3).
T1 sequence: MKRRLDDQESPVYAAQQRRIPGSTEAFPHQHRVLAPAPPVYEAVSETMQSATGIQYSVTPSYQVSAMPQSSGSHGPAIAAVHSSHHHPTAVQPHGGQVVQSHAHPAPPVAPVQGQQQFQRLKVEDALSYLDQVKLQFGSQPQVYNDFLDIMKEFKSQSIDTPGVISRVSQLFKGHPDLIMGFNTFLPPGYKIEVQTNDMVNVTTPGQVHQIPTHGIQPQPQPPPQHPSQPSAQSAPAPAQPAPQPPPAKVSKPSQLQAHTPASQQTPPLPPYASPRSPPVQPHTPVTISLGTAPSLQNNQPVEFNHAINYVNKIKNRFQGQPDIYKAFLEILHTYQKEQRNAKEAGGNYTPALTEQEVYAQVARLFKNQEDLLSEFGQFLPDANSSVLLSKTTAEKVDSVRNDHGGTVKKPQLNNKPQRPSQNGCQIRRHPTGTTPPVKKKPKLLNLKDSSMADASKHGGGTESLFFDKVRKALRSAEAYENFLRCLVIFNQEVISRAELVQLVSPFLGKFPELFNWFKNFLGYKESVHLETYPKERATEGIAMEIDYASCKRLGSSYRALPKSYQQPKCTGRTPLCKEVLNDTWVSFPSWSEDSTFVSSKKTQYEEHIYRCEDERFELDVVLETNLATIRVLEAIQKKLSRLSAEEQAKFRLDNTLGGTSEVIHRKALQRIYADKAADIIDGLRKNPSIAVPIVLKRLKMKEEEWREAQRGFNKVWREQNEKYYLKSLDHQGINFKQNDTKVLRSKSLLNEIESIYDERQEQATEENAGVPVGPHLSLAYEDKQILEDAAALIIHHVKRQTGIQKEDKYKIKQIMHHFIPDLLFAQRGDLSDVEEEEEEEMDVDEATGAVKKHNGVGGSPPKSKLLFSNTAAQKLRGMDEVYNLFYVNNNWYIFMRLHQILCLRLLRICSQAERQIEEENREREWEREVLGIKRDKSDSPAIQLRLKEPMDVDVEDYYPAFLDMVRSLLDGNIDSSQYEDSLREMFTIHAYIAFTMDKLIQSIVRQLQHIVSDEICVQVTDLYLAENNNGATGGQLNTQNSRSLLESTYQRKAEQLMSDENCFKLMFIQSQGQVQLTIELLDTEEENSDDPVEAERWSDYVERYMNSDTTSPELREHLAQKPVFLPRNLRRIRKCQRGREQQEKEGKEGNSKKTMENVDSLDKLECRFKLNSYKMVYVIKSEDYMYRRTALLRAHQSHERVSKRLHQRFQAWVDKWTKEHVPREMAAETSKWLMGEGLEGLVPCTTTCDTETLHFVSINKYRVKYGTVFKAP
The experiment can be described thus: affinity purification with mass spectrometry; co-IP of endogenous SIN3A with a polyclonal antibody from nuclear lysate of MCF-10A cells; gel, in-gel digestion, MALDI-TOF.

For experiment [2], the target named is T1, SIN3A (human (endogenous in HEK293T, MCF-10A and MDA-MB-231)). Put plainly: affinity purification with mass spectrometry; co-IP of endogenous SIN3A with a polyclonal antibody from nuclear lysate of MDA-MB-231 cells; gel, in-gel digestion, MALDI-TOF.

B1: BRMS1 (endogenous) (protein, UniProt Q9HCU9 1-246)
chain: MPVQPPSKDTEEMEAEGDSAAEMNGEEEESEEERSGSQTESEEESSEMDDEDYERRRSECVSEMLDLEKQFSELKEKLFRERLSQLRLRLEEVGAERAPEYTEPLGGLQRSLKIRIQVAGIYKGFCLDVIRNKYECELQGAKQHLESEKLLLYDTLQGELQERIQRLEEDRQSLDLSSEWWDDKLHARGSSRSWDSLPPSKRKKAPLVSGPYIVYMLQEIDILEDWTAIKKARAAVSPQKRKSDGP
As to B1, the binding result in experiment [1] is on record as “no binding (only in nuclear lysate of MCF-10A cells)”; in experiment [2], “binds”.
